From the supplement of paper PMC10849652
Some of the results follow.

Chains of the proteins cited; added tags and fusions are not shown. Lines headed by an entry give the natural chain unless they say otherwise; changes in a name come on top.
UniProt Q96I51, whole entry, looked up: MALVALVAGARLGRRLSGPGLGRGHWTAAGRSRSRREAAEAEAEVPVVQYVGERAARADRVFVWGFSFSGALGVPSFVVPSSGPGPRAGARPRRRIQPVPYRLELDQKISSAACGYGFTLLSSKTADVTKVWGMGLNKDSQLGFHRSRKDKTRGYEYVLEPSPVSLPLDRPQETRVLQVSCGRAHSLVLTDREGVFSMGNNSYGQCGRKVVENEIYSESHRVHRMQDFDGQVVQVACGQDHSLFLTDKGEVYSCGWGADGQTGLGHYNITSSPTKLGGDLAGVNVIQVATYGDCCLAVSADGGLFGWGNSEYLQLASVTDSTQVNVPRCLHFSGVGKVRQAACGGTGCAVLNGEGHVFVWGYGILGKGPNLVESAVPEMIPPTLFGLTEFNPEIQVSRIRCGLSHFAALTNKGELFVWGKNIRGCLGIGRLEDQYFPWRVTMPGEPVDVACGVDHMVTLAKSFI
UniProt P18754: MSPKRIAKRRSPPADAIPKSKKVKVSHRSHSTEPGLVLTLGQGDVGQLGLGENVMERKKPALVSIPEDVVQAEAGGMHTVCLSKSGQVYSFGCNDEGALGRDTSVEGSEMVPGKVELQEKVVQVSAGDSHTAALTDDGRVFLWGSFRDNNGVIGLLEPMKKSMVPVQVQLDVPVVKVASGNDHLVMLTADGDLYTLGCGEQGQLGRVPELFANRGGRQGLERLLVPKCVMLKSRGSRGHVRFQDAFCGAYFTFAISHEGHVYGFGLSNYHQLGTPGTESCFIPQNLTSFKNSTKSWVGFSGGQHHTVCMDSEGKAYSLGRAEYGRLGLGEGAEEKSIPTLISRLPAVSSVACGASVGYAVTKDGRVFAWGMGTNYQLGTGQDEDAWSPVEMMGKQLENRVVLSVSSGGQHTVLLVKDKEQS
UniProt O43665: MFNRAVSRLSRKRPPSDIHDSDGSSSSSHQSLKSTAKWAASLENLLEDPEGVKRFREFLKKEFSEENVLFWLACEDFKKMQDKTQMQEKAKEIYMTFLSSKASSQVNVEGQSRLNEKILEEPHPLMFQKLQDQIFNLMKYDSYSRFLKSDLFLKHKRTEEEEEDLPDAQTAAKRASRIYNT
UniProt O14593: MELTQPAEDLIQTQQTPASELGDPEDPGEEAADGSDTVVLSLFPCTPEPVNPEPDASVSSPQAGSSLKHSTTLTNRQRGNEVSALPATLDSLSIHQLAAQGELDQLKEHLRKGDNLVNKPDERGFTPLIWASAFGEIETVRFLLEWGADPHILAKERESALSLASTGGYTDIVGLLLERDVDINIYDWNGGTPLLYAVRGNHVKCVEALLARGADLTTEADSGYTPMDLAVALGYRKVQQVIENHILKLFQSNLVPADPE
UniProt Q06330: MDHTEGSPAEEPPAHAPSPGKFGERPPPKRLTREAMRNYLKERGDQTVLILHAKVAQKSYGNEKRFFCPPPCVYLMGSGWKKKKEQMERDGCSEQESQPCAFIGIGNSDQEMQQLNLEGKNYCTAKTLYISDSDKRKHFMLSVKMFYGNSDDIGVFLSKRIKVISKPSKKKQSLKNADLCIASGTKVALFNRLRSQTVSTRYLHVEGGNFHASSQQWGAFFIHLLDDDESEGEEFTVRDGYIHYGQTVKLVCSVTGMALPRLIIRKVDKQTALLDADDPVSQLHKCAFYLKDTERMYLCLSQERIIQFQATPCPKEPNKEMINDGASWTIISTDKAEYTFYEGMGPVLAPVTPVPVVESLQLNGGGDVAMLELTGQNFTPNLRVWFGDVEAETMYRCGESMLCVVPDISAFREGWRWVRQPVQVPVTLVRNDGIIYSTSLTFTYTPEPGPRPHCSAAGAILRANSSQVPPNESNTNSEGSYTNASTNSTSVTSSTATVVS
UniProt Q8TEU7: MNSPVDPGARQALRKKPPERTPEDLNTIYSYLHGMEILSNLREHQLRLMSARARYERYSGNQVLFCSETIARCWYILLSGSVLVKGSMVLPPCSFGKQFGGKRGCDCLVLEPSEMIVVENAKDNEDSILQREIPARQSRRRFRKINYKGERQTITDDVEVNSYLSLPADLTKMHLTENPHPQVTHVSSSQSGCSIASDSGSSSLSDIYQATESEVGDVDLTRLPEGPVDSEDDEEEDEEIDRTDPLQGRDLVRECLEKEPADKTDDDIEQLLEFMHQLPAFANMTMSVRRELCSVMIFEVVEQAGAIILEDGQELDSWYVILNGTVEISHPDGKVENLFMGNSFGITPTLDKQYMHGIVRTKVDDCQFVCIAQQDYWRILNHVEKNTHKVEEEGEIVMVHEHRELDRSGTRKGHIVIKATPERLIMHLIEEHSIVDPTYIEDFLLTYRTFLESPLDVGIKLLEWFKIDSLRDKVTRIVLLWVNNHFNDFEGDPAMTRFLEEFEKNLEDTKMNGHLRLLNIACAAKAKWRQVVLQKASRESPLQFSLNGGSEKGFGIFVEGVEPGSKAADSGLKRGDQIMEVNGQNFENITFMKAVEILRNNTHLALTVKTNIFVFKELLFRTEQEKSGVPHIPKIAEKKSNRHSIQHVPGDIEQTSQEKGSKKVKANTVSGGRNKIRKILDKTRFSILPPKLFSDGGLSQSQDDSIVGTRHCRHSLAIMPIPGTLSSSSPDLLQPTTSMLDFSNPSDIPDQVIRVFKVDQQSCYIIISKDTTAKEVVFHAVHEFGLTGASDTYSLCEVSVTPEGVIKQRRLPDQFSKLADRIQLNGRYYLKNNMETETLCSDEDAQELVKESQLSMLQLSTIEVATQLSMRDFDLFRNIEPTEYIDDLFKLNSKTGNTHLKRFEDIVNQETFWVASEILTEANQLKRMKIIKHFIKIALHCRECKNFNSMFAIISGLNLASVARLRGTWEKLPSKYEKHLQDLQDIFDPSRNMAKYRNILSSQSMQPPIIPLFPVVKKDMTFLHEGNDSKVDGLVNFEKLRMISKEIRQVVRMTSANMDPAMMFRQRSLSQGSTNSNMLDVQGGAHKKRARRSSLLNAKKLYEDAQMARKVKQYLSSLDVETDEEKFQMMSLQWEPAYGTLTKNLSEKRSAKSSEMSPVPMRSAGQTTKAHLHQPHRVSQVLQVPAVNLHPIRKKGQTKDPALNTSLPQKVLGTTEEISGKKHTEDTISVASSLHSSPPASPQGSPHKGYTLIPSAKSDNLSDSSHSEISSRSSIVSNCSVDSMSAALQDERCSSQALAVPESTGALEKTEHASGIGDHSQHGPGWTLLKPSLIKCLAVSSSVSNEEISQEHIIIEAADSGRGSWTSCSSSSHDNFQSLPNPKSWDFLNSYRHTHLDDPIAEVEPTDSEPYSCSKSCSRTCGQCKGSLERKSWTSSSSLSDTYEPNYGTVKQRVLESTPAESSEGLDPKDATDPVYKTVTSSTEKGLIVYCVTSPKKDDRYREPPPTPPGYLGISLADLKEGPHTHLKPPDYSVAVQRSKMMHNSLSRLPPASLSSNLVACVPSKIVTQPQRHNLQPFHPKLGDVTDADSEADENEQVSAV
UniProt P52756, whole entry, looked up: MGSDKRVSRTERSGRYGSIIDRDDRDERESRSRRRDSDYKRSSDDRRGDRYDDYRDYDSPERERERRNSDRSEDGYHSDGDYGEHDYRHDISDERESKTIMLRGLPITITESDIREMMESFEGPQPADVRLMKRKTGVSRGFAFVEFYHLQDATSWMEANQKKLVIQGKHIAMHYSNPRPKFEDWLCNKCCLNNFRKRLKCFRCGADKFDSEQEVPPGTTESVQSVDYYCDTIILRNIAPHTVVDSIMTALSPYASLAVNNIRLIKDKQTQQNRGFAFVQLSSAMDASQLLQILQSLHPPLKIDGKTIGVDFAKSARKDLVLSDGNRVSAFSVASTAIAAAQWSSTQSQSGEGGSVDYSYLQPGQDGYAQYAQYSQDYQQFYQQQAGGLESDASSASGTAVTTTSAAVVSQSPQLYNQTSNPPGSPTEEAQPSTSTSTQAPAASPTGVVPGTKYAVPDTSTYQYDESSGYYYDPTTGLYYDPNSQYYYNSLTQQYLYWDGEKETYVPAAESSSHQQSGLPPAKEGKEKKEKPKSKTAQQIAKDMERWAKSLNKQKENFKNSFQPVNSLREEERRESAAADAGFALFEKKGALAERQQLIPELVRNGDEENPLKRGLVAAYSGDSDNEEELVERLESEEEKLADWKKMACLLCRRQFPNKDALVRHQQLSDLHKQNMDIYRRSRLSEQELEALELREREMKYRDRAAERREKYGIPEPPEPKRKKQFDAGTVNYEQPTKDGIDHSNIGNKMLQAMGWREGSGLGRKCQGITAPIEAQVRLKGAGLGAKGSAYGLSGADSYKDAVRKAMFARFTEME
UniProt Q9H6H4: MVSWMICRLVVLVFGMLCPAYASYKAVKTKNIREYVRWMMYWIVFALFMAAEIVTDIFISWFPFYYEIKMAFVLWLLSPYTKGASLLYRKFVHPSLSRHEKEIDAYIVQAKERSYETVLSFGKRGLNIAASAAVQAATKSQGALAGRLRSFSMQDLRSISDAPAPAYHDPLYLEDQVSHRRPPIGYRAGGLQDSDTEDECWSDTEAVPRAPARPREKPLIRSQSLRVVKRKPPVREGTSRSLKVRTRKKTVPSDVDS
UniProt P22670: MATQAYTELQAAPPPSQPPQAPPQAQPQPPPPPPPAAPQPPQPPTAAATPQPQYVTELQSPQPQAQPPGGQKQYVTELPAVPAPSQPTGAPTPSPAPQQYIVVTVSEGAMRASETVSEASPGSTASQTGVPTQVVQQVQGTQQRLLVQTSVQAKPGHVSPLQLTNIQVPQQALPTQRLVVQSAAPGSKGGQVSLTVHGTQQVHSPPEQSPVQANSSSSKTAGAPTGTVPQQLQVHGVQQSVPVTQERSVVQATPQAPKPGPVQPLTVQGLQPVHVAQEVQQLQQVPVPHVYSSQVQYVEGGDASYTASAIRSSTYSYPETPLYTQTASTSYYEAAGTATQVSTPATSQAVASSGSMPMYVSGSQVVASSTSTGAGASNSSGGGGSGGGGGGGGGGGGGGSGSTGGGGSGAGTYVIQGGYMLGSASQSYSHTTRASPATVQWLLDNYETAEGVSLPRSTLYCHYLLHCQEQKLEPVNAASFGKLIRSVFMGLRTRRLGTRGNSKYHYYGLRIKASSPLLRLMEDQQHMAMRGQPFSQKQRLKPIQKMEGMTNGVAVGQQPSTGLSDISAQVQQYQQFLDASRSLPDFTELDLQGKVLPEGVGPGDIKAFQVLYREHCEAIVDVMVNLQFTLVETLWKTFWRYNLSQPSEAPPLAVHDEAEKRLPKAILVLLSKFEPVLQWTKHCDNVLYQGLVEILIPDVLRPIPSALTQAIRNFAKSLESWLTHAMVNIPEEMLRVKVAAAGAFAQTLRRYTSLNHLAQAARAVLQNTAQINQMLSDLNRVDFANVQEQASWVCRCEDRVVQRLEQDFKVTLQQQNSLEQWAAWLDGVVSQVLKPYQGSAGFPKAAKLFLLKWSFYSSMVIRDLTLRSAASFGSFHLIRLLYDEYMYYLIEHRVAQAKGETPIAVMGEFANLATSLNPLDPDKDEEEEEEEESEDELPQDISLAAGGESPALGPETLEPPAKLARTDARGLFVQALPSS
UniProt Q96AA3: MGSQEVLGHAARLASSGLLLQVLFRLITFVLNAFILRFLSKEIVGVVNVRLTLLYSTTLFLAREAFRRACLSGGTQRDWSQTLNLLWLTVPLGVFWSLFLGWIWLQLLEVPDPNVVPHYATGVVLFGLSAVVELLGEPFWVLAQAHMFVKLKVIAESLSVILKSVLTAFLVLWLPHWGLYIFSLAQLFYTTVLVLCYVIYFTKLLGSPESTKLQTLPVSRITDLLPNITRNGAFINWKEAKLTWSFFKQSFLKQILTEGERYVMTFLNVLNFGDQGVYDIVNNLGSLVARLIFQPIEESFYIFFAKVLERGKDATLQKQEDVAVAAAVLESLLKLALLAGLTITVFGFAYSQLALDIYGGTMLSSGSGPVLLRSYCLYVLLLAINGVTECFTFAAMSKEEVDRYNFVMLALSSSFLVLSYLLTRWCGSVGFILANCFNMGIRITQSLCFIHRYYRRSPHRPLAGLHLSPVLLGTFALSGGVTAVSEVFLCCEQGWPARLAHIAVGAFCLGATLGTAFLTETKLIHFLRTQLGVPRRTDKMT
UniProt P38159: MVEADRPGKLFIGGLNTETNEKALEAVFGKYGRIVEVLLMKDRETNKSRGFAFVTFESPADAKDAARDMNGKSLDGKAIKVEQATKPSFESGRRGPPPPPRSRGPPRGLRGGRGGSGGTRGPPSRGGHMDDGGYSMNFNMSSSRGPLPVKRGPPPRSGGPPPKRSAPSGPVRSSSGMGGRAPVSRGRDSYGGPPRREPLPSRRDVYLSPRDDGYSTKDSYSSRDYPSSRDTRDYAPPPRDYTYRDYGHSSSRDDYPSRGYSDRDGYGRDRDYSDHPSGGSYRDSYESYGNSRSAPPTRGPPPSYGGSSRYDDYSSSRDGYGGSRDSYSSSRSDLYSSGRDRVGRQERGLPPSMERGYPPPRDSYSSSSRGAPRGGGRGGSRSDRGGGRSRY

What was measured:
Assay in all cases: log2 fold change, soluble protein after heating vs DMSO (PISA); higher = thermal stabilisation; K562 lysate, 10 uM; active = over 0.2 and 3.5 SD of the protein, either way, in both replicates (recomputed)
vemurafenib = compound: CCCS(=O)(=O)Nc1ccc(F)c(C(=O)c2c[nH]c3ncc(-c4ccc(Cl)cc4)cc23)c1F [vemurafenib]
Summary of the method: (§1)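 The values are log-two fold changes in thermal stability compared with solvent controls and come from duplicates. They were obtained by TMTpro 16plex LC-MS/MS, with channel sums equalised, on the supernatant after 21,000xg for 90 min. That supernatant came from crude K562 extract at 1 mg/mL protein treated with 10 μM compound for 30 min, heated for 3 min across 48°C-58°C, pooled and brought to 0.5% NP-40 at 4°C.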

[1] = compound: CCCS(=O)(=O)Nc1ccc(F)c(C(=O)c2c[nH]c3ncc(Cl)cc23)c1F
Summary of the method: as §1

barasertib = compound: CCN(CCCOc1ccc2c(Nc3cc(CC(=O)Nc4cccc(F)c4)[nH]n3)ncnc2c1)CCOP(=O)(O)O [barasertib]
Summary of the method: as §1

[2] = compound: CC[C@@H]1C(=O)N(C)c2cnc(Nc3ccc(C(=O)NC4CCN(C)CC4)cc3OC)nc2N1C1CCCC1
Summary of the method: as §1

volasertib = compound: CC[C@@H]1C(=O)N(C)c2cnc(Nc3ccc(C(=O)N[C@H]4CC[C@H](N5CCN(CC6CC6)CC5)CC4)cc3OC)nc2N1C(C)C [volasertib]
Summary of the method: as §1

[3] = compound: CCn1c(C(=O)N(C2CC2)C2CC2)cc2c3c(ncn3C)c(Nc3cc(C)n(C)n3)nc21
Summary of the method: as §1

[4] = compound: CCn1cc(-c2ccnc3[nH]c(-c4cccc(CN(C)C)c4)cc23)c(-c2ccc(NC(=O)N(C)C)cc2)n1
Summary of the method: as §1

[5] = compound: CN1CCC(CNc2ccc3ncc(-c4cccc(OC(F)(F)F)c4)n3n2)CC1
Summary of the method: as §1

saracatinib = compound: CN1CCN(CCOc2cc(OC3CCOCC3)c3c(Nc4c(Cl)ccc5c4OCO5)ncnc3c2)CC1 [saracatinib]
Summary of the method: as §1

sotrastaurin = compound: CN1CCN(c2nc(C3=C(c4c[nH]c5ccccc45)C(=O)NC3=O)c3ccccc3n2)CC1 [sotrastaurin]
Summary of the method: as §1

Measured: log2 fold change

RCC1L (UniProt Q96I51)
inactive: vemurafenib 0.002 | [1] 0.028 | barasertib 0.018 | [2] -0.033 | volasertib -0.006 | [3] 0.002 | [4] -0.016 | [5] 0.048 | saracatinib -0.029 | sotrastaurin 0.012

RCC1 isoform 2 (UniProt P18754)
inactive: vemurafenib 0.049 | [1] 0.018 | barasertib -0.008 | [2] -0.114 | volasertib -0.066 | [3] 0.027 | [4] -0.105 | [5] -0.046 | saracatinib -0.021 | sotrastaurin 0.001

RGP1 (UniProt Q92546)
inactive: vemurafenib -0.063 | [1] 0.095 | barasertib 0.066 | [2] -0.155 | volasertib -0.061 | [3] -0.064 | [4] 0.082 | [5] -0.089 | saracatinib 0.059 | sotrastaurin -0.002

RBM25 (UniProt P49756)
inactive: vemurafenib -0.008 | [1] -0.004 | barasertib 0.029 | [2] 0.099 | volasertib 0.001 | [3] 0.045 | [4] -0.013 | [5] 0.018 | saracatinib 0.009 | sotrastaurin -0.036

RB1CC1 (UniProt Q8TDY2)
inactive: vemurafenib 0.028 | [1] 0.016 | barasertib 0.018 | [2] 0.063 | volasertib -0.021 | [3] -0.007 | [4] 0.031 | [5] 0 | saracatinib 0.011 | sotrastaurin -0.007

RELCH isoform 2 (UniProt Q9P260)
inactive: vemurafenib 0.053 | [1] 0.009 | barasertib 0.025 | [2] 0.044 | volasertib -0.044 | [3] 0.066 | [4] 0.001 | [5] -0.06 | saracatinib 0.026 | sotrastaurin 0.015

RGS10 (UniProt O43665)
inactive: vemurafenib 0.019 | [1] 0.017 | barasertib -0.006 | [2] 0.037 | volasertib 0.014 | [3] -0.018 | [4] 0.032 | [5] -0.021 | saracatinib 0.008 | sotrastaurin 0.019

RFXANK (UniProt O14593)
inactive: vemurafenib -0.041 | [1] -0.005 | barasertib 0.133 | [2] -0.041 | volasertib 0.029 | [3] -0.006 | [4] 0.049 | [5] -0.126 | saracatinib 0.046 | sotrastaurin -0.002

RFC1 (UniProt P35251)
inactive: vemurafenib -0.012 | [1] -0.019 | barasertib 0.007 | [2] 0.059 | volasertib 0.018 | [3] 0.022 | [4] 0.107 | [5] -0.058 | saracatinib -0.054 | sotrastaurin -0.011

RETREG3 (UniProt Q86VR2)
inactive: vemurafenib 0.028 | [1] 0.006 | barasertib 0.038 | [2] 0.005 | volasertib 0.014 | [3] -0.054 | [4] 0.161 | [5] -0.116 | saracatinib -0.006 | sotrastaurin -0.029

RBPJ (UniProt Q06330)
inactive: vemurafenib -0.03 | [1] -0.007 | barasertib 0.008 | [2] 0.046 | volasertib 0.004 | [3] 0 | [4] -0.011 | [5] 0.017 | saracatinib -0.025 | sotrastaurin 0.009

RFK (UniProt Q969G6)
inactive: vemurafenib 0 | [1] 0 | barasertib 0.122 | [2] -0.006 | volasertib -0.061 | [3] -0.017 | [4] -0.052 | [5] 0.008 | saracatinib 0.03 | sotrastaurin -0.007

RAPGEF6 isoform 4 (UniProt Q8TEU7)
inactive: vemurafenib 0.009 | [1] 0.026 | barasertib 0.027 | [2] -0.024 | volasertib 0.004 | [3] 0.004 | [4] 0.006 | [5] -0.019 | saracatinib 0.005 | sotrastaurin 0.01

RBM8A (UniProt Q9Y5S9)
inactive: vemurafenib -0.086 | [1] -0.045 | barasertib 0.027 | [2] -0.091 | volasertib -0.016 | [3] 0.047 | [4] 0.35 | [5] -0.198 | saracatinib -0.043 | sotrastaurin 0.047

RBM42 (UniProt Q9BTD8)
inactive: vemurafenib -0.029 | [1] 0.027 | barasertib -0.037 | [2] 0.076 | volasertib -0.014 | [3] -0.006 | [4] 0.004 | [5] -0.002 | saracatinib 0.039 | sotrastaurin -0.009

RFFL (UniProt Q8WZ73)
inactive: vemurafenib 0.107 | [1] 0.044 | barasertib -0.126 | [2] 0.119 | volasertib -0.14 | [3] -0.092 | [4] -0.053 | [5] 0.062 | saracatinib 0.097 | sotrastaurin -0.068

RHEB (UniProt Q15382)
inactive: vemurafenib -0.013 | [1] -0.003 | barasertib 0.037 | [2] -0.164 | volasertib -0.06 | [3] 0.047 | [4] -0.107 | [5] 0.081 | saracatinib 0.009 | sotrastaurin 0.044

RBM19 (UniProt Q9Y4C8)
inactive: vemurafenib 0 | [1] 0.022 | barasertib 0.115 | [2] -0.002 | volasertib 0.105 | [3] -0.093 | [4] -0.035 | [5] 0.067 | saracatinib -0.084 | sotrastaurin -0.026

RBM5 (UniProt P52756)
inactive: vemurafenib -0.021 | [1] -0.018 | barasertib 0.087 | [2] 0.013 | volasertib -0.277 | [3] 0.064 | [4] 0.048 | [5] -0.012 | saracatinib -0.039 | sotrastaurin -0.03

RCC2 (UniProt Q9P258)
inactive: vemurafenib -0.014 | [1] -0.015 | barasertib -0.019 | [2] -0.071 | volasertib -0.018 | [3] 0.028 | [4] 0.001 | [5] -0.011 | saracatinib 0.007 | sotrastaurin 0.002

REEP4 (UniProt Q9H6H4)
inactive: vemurafenib 0.058 | [1] 0.008 | barasertib -0.073 | [2] 0.007 | volasertib -0.037 | [3] 0.011 | [4] 0 | [5] -0.115 | saracatinib 0.036 | sotrastaurin -0.053

RFX1 (UniProt P22670)
inactive: vemurafenib -0.004 | [1] 0.028 | barasertib 0.047 | [2] 0.017 | volasertib 0 | [3] -0.011 | [4] 0.074 | [5] 0.037 | saracatinib 0.019 | sotrastaurin -0.014

RENBP (UniProt P51606)
inactive: vemurafenib 0.057 | [1] 0.023 | barasertib -0.005 | [2] 0.007 | volasertib 0.011 | [3] -0.033 | [4] -0.065 | [5] 0.038 | saracatinib 0.053 | sotrastaurin -0.057

RBM12 (UniProt Q9NTZ6)
inactive: vemurafenib 0.006 | [1] 0.023 | barasertib -0.009 | [2] 0.007 | volasertib -0.017 | [3] 0.01 | [4] -0.037 | [5] 0.042 | saracatinib -0.003 | sotrastaurin -0.017

RFT1 (UniProt Q96AA3)
inactive: vemurafenib 0.07 | [1] -0.042 | barasertib -0.014 | [2] 0.023 | volasertib 0.028 | [3] 0.068 | [4] -0.007 | [5] 0.056 | saracatinib 0.011 | sotrastaurin 0.022

RB1 (UniProt P06400)
inactive: vemurafenib 0.003 | [1] 0.013 | barasertib 0.038 | [2] 0.031 | volasertib -0.006 | [3] 0.003 | [4] -0.039 | [5] 0.029 | saracatinib 0.007 | sotrastaurin 0.014

RBMX (UniProt P38159)
inactive: vemurafenib -0.058 | [1] 0.013 | barasertib -0.026 | [2] -0.012 | volasertib -0.02 | [3] 0.067 | [4] -0.007 | [5] 0.009 | saracatinib -0.031 | sotrastaurin -0.014

RFLNB (UniProt Q8N5W9)
inactive: vemurafenib 0 | [1] 0.081 | barasertib -0.066 | [2] -0.02 | volasertib -0.03 | [3] -0.071 | [4] 0.04 | [5] 0.064 | saracatinib -0.083 | sotrastaurin 0.062

RCL1 (UniProt Q9Y2P8)
inactive: vemurafenib 0.057 | [1] 0.029 | barasertib 0.005 | [2] -0.046 | volasertib -0.038 | [3] 0.022 | [4] 0.002 | [5] 0.069 | saracatinib 0.003 | sotrastaurin -0.006

RELA (UniProt Q04206)
inactive: vemurafenib 0.011 | [1] 0.048 | barasertib 0.018 | [2] -0.009 | volasertib -0.057 | [3] 0.063 | [4] -0.011 | [5] -0.024 | saracatinib -0.007 | sotrastaurin -0.05

Quoted from the results shown (2 entries):
RBMX (UniProt P38159)
inactive: vemurafenib -0.058 | [1] 0.013 | barasertib -0.026 | [2] -0.012 | volasertib -0.02 | [3] 0.067 | [4] -0.007 | [5] 0.009 | saracatinib -0.031 | sotrastaurin -0.014

RFLNB (UniProt Q8N5W9)
inactive: vemurafenib 0 | [1] 0.081 | barasertib -0.066 | [2] -0.02 | volasertib -0.03 | [3] -0.071 | [4] 0.04 | [5] 0.064 | saracatinib -0.083 | sotrastaurin 0.062
